Laboratory results: PubChem BioAssay AID1259308 (NCATS, 2017)

Purpose: 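Candidate targets for better recombinant protein yield in mammalian cells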 (primary screen)
Cell system: human HEK293 embryonic kidney cells stably expressing firefly luciferase (HEK-CMV-Luc2-Hygro)
Knock-down reagent: single siRNA against human genes, 0.8 pmol siRNA per well
Timing: 72 h
Measurement: 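Luciferase light (ONE-Glo) measured on one replicate plate set and viability (CellTiter-Glo) on the other, scaled to a negative control siRNA, with robust z-scores and luciferase per cell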
Direction: total luciferase, z-score and total luciferase, % of control: higher = more reporter protein produced
Hit rule: 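Active when the median/MAD z-score for overall luciferase is greater than 3; a gene was taken forward for validation with new siRNAs if at least two of its three siRNAs passed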
Meaning of the calls: active = raised luciferase; inactive = no rise
Here is one part, drawn at random, of about 59,000 reagents. In the full data, about 1,510 (2.6%) got an active call. 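Calls use total luciferase alone and ignore viability, so some active siRNAs may act by altering cell number.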 The numbers tell different reagents against one gene apart. Not all columns of the deposit are shown.

MALSU1 #1 gave total luciferase, z-score 1.74; total luciferase, % of control 117; inactive.
MALSU1 #2 scored total luciferase, z-score 2.73; total luciferase, % of control 136; inactive.
MALSU1 #3 scored total luciferase, z-score -0.823; total luciferase, % of control 65.5; inactive.
Knock-down of ZBTB21 #1 came out at: total luciferase, z-score 0.0647; total luciferase, % of control 83.2; inactive.
ZBTB21 #2 gave total luciferase, z-score -0.375; total luciferase, % of control 74.4; inactive.
For ZBTB21 #3 the deposit lists total luciferase, z-score 2.03; total luciferase, % of control 122; inactive.
After knock-down of PSMF1 #1 the results were total luciferase, z-score 0.288; total luciferase, % of control 87.6; inactive.
For PSMF1 #2 the deposit lists total luciferase, z-score -0.463; total luciferase, % of control 72.7; inactive.
With knock-down of PSMF1 #3, the record shows total luciferase, z-score -0.688; total luciferase, % of control 68.2; inactive.
With knock-down of TFR2 #1 the results were total luciferase, z-score -1.05; total luciferase, % of control 61; inactive.
Silencing of TFR2 #2 came out at: total luciferase, z-score 0.302; total luciferase, % of control 87.9; inactive.
Knock-down of TFR2 #3 gave: total luciferase, z-score -0.692; total luciferase, % of control 68.1; inactive.

Part of the list above, reduced to “total luciferase, z-score”:
MALSU1 #2 = 2.73
MALSU1 #3 = -0.823
